Test results as given in PubChem BioAssay AID588590 (National Center for Advancing Translational Sciences (NCATS), 2011).
About 4,000 (1%) of roughly 390,000 compounds were called active. Inconclusive means that the source gave no clear call. Such entries were picked first, then a sample of the others. Calls follow the shape of the dose curve; as a rule, active = well fitted inhibition curve with a large enough effect; inconclusive = small, poorly fitted or top-dose-only effect, or another doubt; inactive = no such curve, though single readings can be large or run the other way. Potencies of inconclusive entries are doubtful fits and often do not repeat.
Potency is read from the fitted curve at half-maximal effect.

Protein sequences, listed by entry. Tags and fused reporters are not part of them. Lines headed by an entry give the natural chain unless they say otherwise; changes in a name come on top.
UniProt Q9UNA4: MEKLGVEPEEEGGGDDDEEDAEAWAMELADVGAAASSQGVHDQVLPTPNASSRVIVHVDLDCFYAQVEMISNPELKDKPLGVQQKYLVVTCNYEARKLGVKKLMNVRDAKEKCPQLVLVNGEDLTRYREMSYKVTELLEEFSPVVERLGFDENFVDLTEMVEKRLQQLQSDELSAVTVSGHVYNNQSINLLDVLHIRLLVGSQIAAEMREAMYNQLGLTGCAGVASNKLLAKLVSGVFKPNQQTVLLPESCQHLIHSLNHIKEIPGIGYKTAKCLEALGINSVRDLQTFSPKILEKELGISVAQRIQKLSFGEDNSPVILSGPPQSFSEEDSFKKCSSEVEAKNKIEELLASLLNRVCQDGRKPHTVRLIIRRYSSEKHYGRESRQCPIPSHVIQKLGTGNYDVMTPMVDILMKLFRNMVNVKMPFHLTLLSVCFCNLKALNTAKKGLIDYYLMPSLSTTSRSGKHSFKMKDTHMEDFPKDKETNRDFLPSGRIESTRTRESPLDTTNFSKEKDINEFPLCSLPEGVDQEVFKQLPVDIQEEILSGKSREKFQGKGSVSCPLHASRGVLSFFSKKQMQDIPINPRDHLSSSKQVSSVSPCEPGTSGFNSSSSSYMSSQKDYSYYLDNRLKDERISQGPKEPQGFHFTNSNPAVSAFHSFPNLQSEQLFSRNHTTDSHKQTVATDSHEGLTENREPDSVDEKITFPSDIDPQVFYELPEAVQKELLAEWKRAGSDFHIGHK

What follows are compounds tested against DNA polymerase iota (Homo sapiens) (UniProt Q9UNA4) (assay: qHTS for Inhibitors of Polymerase Iota). Conditions: Pol iota fluorescent replication assay, 10 min; series mostly up to 115 µM.
Summary of the method: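 Pol iota at 10 nM preincubated 15 min with compounds at room temperature; reaction started with fluorescent substrate, 50 nM final. Fluorescence read kinetically at 0 and 10 min; buffer-only wells as negative control.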
With `CCN(CC)S(=O)(=O)c1ccc2c(c1)c(=O)c(C(=O)NCc1ccccc1OC)cn2C` the Potency was inconclusive: 70.8 µM [inhibitor, partial curve]. `O=C1NC(=O)[C@]2(Cc3ccccc3N3CCN(c4ccccc4)CC32)C(=O)N1c1ccccc1` (some centres not stated) was tested, and the Potency was inconclusive: 31.6 µM [inhibitor, full curve, poor fit]. `Cn1ncc2c(NCc3ccco3)ncnc21` was tested, and the Potency was inconclusive: 89.1 µM [inhibitor, single point]. For `Cc1ccc(-n2nc(C)c3c2OC(N)=C(C#N)C3c2ccc(F)cc2)cc1` (configuration not stated), the Potency was inconclusive: 25.1 µM [inhibitor, single point]. In the case of `Oc1cccc2cccnc12`, the Potency is reported as “inactive”. In the case of `Cc1cc([N+](=O)[O-])ccc1N`, the Potency is reported as inconclusive: 100 µM [inhibitor, partial curve, poor fit]. For `O=C(O)c1ccccc1NS(=O)(=O)c1cccc(N=Nc2c(O)[nH]c(=S)[nH]c2=O)c1`, the Potency was inconclusive: 20 µM [inhibitor, partial curve, poor fit]. With `O=c1[nH]c(=S)n(C2CC2)c(O)c1/C=N/Nc1ccccc1` the Potency was inconclusive: 39.8 µM [inhibitor, single point]. In the case of `Cc1cccc(NC(=O)CSc2nnc(C)c(=O)n2N)c1C`, the Potency is reported as “inactive”. `CN1C(=O)NC(=O)/C(=C/c2ccc([N+](=O)[O-])s2)C1=O` was tested, and the Potency was inconclusive: 14.1 µM [inhibitor, full curve, poor fit]. In the case of `Cn1c(O)c(C(=O)c2ccccc2)c(=O)n(C)c1=O`, the Potency is reported as inconclusive: 7.94 µM [inhibitor, full curve, poor fit]. In the case of `C=C1C(=O)O[C@@H]2C[C@@H](C)[C@@H]3C=CC(=O)[C@@]3(C)[C@@H](O)[C@H]12`, the Potency is reported as inconclusive: 14.1 µM [inhibitor, partial curve, poor fit]. For `N#CC1c2ccccc2-n2nncc2CN1Cc1cc(Cl)cc(Cl)c1` (configuration not stated), the Potency was inconclusive: 28.2 µM [inhibitor, partial curve, poor fit]. For `CN(C)c1c([N+](=O)[O-])cc(N2C(=O)C=CC2=O)cc1[N+](=O)[O-]`, the Potency was inconclusive: 15.8 µM [inhibitor, full curve, poor fit]. In the case of `COc1ccc(C(=O)Nc2ccc(-c3cc(C(F)(F)F)nn3-c3ccccc3)cc2)cc1OC`, the Potency is reported as inconclusive: 89.1 µM [inhibitor, single point]. For `Fc1cccc(CCNCc2ccccn2)c1`, the Potency was inconclusive: 39.8 µM [inhibitor, single point]. `CNC(=O)Nc1ccc(C(=O)N/N=C\C23CC[C@@H](O)CC2(O)CC[C@@H]2[C@@H]3CCC3(C)C(C4=CC(=O)OC4)CCC23O)cc1` (some centres not stated) was tested, and the Potency was inconclusive: 44.7 µM [inhibitor, partial curve]. `Cc1cccc(C2CC(=O)Oc3c2c(=O)oc2ccccc32)c1` (configuration not stated) was tested, and the Potency was inconclusive: 2.82 µM [inhibitor, partial curve, poor fit]. `Cc1ccc(OCC(=O)N2CCN(Cc3ccc([N+](=O)[O-])cc3)CC2)cc1` was tested, and the Potency was inconclusive: 22.4 µM [inhibitor, single point]. `CC(=O)C(Sc1ncnc2c1nnn2-c1ccc(F)cc1)C(=O)N(C)C` (configuration not stated) was tested, and the Potency was inconclusive: 25.1 µM [inhibitor, single point]. With `COc1ccc(P2(=O)Nc3ccccc3N2)cc1` the Potency was “inactive”. `Cn1c(O)c(Cc2ccc(OCc3ccccc3)cc2)c(=O)n(C)c1=O` was tested, and the Potency was inconclusive: 25.1 µM [inhibitor, single point]. `Cn1c(O)c(/C=C/C=Nc2ccccc2)c(=O)n(C)c1=O` was tested, and the Potency was inconclusive: 89.1 µM [inhibitor, single point]. With `CC(c1ccccc1)n1cncc1C(=O)N1CCCC1=O` (configuration not stated) the Potency was inconclusive: 11.2 µM [inhibitor, partial curve, poor fit]. `Nc1c(C(=O)NCCN2CCOCC2)c2nc3ccccc3nc2n1Cc1ccco1` was tested, and the Potency was inconclusive: 22.4 µM [inhibitor, partial curve]. With `COc1cc(CNCCc2ccc3c(c2)OCO3)cc(OC)c1OC` the Potency was inconclusive: 0.708 µM [inhibitor, full curve, poor fit]. With `O=C1CC(CSc2ccc(Cl)cc2)=NN1` the Potency was inconclusive: 17.8 µM [inhibitor, partial curve, poor fit]. In the case of `CCCCN1C(=O)/C(=C/c2ccc(N(C)C)cc2)C(=O)N(Cc2ccco2)C1=O`, the Potency is reported as inconclusive: 14.1 µM [inhibitor, partial curve, poor fit]. With `Cc1cc(/C=C2/C(=O)NC(=O)N(Cc3ccco3)C2=O)c(C)n1-c1ccccc1` the Potency was active: 2.24 µM. For `O=C1NC(=O)N(c2cccc(F)c2)C(=O)/C1=C/c1ccc(N2CCOCC2)cc1`, the Potency was inconclusive: 2.24 µM [inhibitor, full curve, poor fit]. With `CCC(C(=O)N1CCC2(CC1)OCCO2)c1ccccc1` (configuration not stated) the Potency was inconclusive: 126 µM [inhibitor, single point]. `Oc1ccc2c3c1O[C@H]1c4[nH]c5c(c4C[C@@]4(O)[C@@H](C2)N(CC2CC2)CC[C@]314)C[C@@]1(O)[C@H]2Cc3ccc(O)c4c3[C@@]1(CCN2CC1CC1)[C@H]5O4` was tested, and the Potency was inconclusive: 14.1 µM [inhibitor, partial curve]. For `CN(C)[C@@H]1C(=O)C(C(N)=O)=C(O)[C@@]2(O)C(=O)C3=C(O)c4c(O)ccc(Cl)c4[C@@](C)(O)C3C[C@@H]12` (some centres not stated), the Potency was inconclusive: 50.1 µM [inhibitor, partial curve]. `O=C(CCCOc1ccc(Cl)cc1Cl)N1CCC2(CC1)OCCO2` was tested, and the Potency was inconclusive: 70.8 µM [inhibitor, full curve]. `O=C1Nc2ccc(Br)cc2C(c2ccccc2)=NC1O` (configuration not stated) was tested, and the Potency was inconclusive: 8.91 µM [inhibitor, partial curve, poor fit]. For `O=C(O)Cn1cc(/C=C2\C(=O)NC(=O)N(c3ccc(Cl)cc3)C2=O)c2ccccc21`, the Potency was inconclusive: 11.2 µM [inhibitor, partial curve, poor fit]. `CN(CC1COc2ccccc2O1)c1nc(-c2cccnc2)nc2ccccc12` (configuration not stated) was tested, and the Potency was inconclusive: 22.4 µM [inhibitor, partial curve, poor fit].
